Data published in publication PMC7960628.
Results are given in words; binding and its absence hold for the method and conditions named. Some binding calls cover weakened binding; strength is not graded here.

The chains behind the UniProt entries cited, without tags or fusion partners. Where a name states a change or a piece, a line headed by the entry shows the natural chain unless it says otherwise. Residues count along the entry.
UniProt P02454: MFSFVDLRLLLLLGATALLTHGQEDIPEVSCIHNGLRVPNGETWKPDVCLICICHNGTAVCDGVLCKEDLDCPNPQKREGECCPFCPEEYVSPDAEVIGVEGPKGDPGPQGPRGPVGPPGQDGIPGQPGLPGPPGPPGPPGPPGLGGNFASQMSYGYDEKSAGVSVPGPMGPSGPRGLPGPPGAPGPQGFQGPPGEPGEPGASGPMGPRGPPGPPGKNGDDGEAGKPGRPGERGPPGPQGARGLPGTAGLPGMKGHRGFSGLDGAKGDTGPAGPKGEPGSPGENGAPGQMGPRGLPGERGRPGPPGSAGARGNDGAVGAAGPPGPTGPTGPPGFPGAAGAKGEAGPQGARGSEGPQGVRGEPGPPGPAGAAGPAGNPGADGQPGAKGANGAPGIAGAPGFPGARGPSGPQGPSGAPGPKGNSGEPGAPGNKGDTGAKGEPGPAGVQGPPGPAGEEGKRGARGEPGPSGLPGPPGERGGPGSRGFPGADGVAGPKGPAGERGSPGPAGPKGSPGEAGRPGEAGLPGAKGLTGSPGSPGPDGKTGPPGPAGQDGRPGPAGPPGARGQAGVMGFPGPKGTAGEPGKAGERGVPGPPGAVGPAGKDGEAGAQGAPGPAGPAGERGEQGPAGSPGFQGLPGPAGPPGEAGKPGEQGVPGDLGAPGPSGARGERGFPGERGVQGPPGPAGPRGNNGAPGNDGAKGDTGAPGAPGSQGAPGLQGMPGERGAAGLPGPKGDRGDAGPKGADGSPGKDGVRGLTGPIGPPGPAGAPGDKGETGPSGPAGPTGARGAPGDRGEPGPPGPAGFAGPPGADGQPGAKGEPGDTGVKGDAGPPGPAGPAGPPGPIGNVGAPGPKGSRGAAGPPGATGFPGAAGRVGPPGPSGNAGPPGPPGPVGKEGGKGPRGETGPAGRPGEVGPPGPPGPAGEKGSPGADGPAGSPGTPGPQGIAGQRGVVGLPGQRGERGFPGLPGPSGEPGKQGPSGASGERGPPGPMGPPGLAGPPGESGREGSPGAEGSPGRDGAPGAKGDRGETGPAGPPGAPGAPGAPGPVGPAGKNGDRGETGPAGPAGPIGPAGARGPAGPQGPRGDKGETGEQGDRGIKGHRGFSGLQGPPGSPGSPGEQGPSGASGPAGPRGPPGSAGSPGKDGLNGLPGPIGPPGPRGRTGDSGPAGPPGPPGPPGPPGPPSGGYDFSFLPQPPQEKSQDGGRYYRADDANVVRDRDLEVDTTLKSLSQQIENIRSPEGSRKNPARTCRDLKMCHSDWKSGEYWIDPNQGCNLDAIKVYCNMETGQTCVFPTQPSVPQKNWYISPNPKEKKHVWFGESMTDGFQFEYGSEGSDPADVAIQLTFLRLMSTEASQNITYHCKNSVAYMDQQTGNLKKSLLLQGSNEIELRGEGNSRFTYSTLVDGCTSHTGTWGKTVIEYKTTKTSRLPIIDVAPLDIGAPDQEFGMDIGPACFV
UniProt P02466: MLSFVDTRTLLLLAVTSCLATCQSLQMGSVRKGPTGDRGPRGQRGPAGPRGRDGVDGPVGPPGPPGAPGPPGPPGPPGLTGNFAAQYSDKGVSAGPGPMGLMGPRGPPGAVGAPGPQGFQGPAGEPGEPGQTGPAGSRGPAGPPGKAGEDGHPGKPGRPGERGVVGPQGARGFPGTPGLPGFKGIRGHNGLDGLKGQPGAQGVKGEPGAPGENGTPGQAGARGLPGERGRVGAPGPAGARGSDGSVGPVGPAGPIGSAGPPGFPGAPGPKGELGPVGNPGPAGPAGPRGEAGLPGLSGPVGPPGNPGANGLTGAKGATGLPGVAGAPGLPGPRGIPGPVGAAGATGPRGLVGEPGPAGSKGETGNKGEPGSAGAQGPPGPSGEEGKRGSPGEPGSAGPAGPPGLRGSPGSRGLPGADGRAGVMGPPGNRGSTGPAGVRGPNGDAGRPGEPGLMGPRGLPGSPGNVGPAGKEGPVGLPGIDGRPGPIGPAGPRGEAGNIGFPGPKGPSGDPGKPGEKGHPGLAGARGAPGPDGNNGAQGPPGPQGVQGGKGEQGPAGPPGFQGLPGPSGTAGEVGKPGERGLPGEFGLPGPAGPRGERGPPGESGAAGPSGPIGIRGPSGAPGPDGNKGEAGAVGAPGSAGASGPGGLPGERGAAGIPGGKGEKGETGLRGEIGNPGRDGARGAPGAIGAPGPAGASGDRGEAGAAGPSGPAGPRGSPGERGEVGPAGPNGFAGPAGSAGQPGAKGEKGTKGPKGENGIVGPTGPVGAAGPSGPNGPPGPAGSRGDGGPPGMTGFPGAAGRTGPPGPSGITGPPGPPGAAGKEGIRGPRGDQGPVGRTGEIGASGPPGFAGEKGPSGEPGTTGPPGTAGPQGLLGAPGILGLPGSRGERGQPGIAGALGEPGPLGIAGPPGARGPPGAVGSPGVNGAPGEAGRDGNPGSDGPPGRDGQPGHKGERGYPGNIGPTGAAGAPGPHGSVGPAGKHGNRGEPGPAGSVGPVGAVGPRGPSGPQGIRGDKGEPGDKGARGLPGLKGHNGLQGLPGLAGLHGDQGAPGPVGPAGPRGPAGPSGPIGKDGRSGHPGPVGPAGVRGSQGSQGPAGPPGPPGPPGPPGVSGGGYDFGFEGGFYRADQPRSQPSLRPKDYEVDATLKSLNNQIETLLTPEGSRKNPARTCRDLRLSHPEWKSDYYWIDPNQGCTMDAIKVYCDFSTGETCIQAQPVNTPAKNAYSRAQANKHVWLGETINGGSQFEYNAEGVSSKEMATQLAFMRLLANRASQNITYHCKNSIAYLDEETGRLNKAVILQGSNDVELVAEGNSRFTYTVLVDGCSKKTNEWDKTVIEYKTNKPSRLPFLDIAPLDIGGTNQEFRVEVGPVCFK
UniProt P17301, residues 172-355: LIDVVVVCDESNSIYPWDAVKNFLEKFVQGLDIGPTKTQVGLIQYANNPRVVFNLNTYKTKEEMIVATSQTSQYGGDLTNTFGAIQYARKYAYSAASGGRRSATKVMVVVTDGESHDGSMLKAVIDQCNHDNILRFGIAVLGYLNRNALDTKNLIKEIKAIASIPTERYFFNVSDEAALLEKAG

Target: collagen I (rat tail, Collaborative Biomedical Products) (rat) (UniProt P02454+P02466)
Experiment: ELISA; solid-phase assay: 0.25 μg of collagens I, IV, XIII in 50 μl TBS coated on microtiter plates; GST-I domains soluble, diluted in TBS with 30 μg/ml BSA, 2 mM MgCl2, 0.05% Tween-20; room temperature; detected with anti-GST antibody; both purified

**Q.** “GST-α2I fusion protein (recombinant I domain of human integrin α2) (from UniProt P17301 172-355) (domain or fragment)” was tested. Which binding did it give?
**A.** Its binding is “binds”.
